Test results from article PMC12876990, “Targeting secreted PLA2 interactions with EGFR and vimentin to arrest prostate tumour growth” (Cell Death & Disease, 2025).
Results are given in words; binding and its absence hold for the method and conditions named. For some of these results: In cells and extracts the contact can be indirect. Some results given as binding are weak or reduced against the parent protein; the word gives no strength.

Protein sequences, listed by entry. Tags and fused reporters are not part of them.
UniProt P08670: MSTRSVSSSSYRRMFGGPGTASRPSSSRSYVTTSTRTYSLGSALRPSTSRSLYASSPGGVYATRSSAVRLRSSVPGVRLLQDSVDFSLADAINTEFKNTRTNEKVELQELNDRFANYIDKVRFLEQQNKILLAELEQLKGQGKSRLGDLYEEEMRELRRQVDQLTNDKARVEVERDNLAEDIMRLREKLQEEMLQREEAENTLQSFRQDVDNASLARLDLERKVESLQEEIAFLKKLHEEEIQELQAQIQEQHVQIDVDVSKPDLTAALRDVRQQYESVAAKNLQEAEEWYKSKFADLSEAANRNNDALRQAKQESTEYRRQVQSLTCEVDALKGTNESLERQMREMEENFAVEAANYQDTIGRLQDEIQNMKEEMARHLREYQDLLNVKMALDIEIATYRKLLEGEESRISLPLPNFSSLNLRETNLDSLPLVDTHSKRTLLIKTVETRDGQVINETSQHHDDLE

B1: secreted phospholipase A2 human group IIA (hGIIA) (enzyme, UniProt P14555 21-144)
chain: NLVNFHRMIKLTTGKEAALSYGFYGCHCGVGGRGSPKDATDRCCVTHDCCYKRLEKRGCGTKFLSYKFSNSGSRITCAKQDSCRSQLCECDKAAATCFARNKTTYNKKYQYYSNKHCRGSTPRC
B2: endogenous hGIIA in LNCaP cells (enzyme, UniProt P14555 21-144)
chain: B1 chain

Experiments:
[1] = target: epidermal growth factor receptor (EGFR) (human (endogenous in PC-3)) (UniProt P00533); experiment: co-IP; PC-3 cells incubated with hGIIA (2 µg/mL, 2 h), washed, lysed; lysate immunoprecipitated with anti-EGFR beads overnight; hGIIA detected by western blot; only the binder purified
[2] = target: full-length vimentin (purified) (UniProt P08670); experiment: ELISA; in vitro enzyme immunoassay: vimentin fragments (coil 1, coil 2, full length) coated on a 96-well microplate at 15 µg/mL; hGIIA in PBS with 0.1% BSA, 37 °C, 2 h; detected with anti-hGIIA 4A1-alkaline phosphatase; both purified
[3] = target: endogenous vimentin in LNCaP cells (human (endogenous in LNCaP)) (UniProt P08670); experiment: co-IP; LNCaP cell lysate incubated with anti-vimentin antibody beads overnight; vimentin and hGIIA detected by western blot; beads alone as negative control
[4] = target: endogenous vimentin in LNCaP cells (human (endogenous in LNCaP)) (UniProt P08670); experiment: FRET or BRET; FLIM-FRET on fixed, permeabilised LNCaP cells immunostained with anti-vimentin RV202/AF488 (donor) and anti-hGIIA 4A1/AF568 (acceptor); 2-photon excitation 960 nm

| Binder | binding [1] | binding [2] | binding [3] | binding [4] |
| --- | --- | --- | --- | --- |
| B1 | binds | binds |  |  |
| B2 |  |  | binds | binds |
